# Experimental data taken from the supplement of paper PMC8728848.
# The other results are listed elsewhere or left out.
# B1: Epa11 (Candida glabrata) (protein)
# chain: MGSSHHHHHHSSGLVPRGSHMASSNAPNYPVGCSPSVGTQLTPGLSLEVYAYPMDGNNGYCWNATYKDPEFPRSGYLKNKLLGKADGVVGPLNFLAKNKDCSPKVDTLPAGFNFPQPITVTNFTMVLFGYLAPKQSGKYTFKLLADDLLLLNLGATNAFDCCNREATKNNLGEFLAYNLWPNQDKNVTVYLEKGVYYPLRLFFNNRDGGSQLDFSYYFNDSPAPLTDFSGMFFSVPDGAECPARI
# What was measured:
# Test in all cases: glycan array binding signal (z-score within array); higher = stronger binding
# Settings in all cases: glycan notation: IUPAC condensed, linker removed
# [1] = biological target: GlcNAc(b1-3)Gal(b1-4)GlcNAc(b1-3)Gal(b1-4)GlcNAc(b1-2)Man(a1-3)[GlcNAc(b1-3)Gal(b1-4)GlcNAc(b1-3)Gal(b1-4)GlcNAc(b1-2)Man(a1-6)]Man(b1-4)GlcNAc(b1-4)GlcNAc
# Outline: (§1)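 Arrays were curated from the Consortium for Functional Glycomics database, 3228 in total, and kept only where the protein sequence was available. Binding is expressed as a within-array Z-score. This score was averaged across arrays of the same protein sequence at different concentrations or buffers and across linkers, and negative values can be read as non-binding.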
# [2] = biological target: GlcNAc(b1-3)Gal(b1-4)GlcNAc(b1-3)Gal(b1-4)GlcNAc(b1-2)Man(a1-3)[GlcNAc(b1-3)Gal(b1-4)GlcNAc(b1-3)Gal(b1-4)GlcNAc(b1-2)Man(a1-6)]Man(b1-4)GlcNAc(b1-4)[Fuc(a1-6)]GlcNAc
# Outline: as §1
# [3] = biological target: GlcNAc(b1-3)Gal(b1-4)GlcNAc(b1-3)Gal(b1-4)GlcNAc(b1-2)[GlcNAc(b1-3)Gal(b1-4)GlcNAc(b1-3)Gal(b1-4)GlcNAc(b1-6)]Man(a1-6)[GlcNAc(b1-3)Gal(b1-4)GlcNAc(b1-3)Gal(b1-4)GlcNAc(b1-2)Man(a1-3)]Man(b1-4)GlcNAc(b1-4)[Fuc(a1-6)]GlcNAc
# Outline: as §1
# [4] = biological target: GlcNAc(b1-3)Gal(b1-4)GlcNAc(b1-3)Gal(b1-4)GlcNAc(b1-3)Gal(b1-4)GlcNAc(b1-2)Man(a1-3)[GlcNAc(b1-3)Gal(b1-4)GlcNAc(b1-3)Gal(b1-4)GlcNAc(b1-3)Gal(b1-4)GlcNAc(b1-2)Man(a1-6)]Man(b1-4)GlcNAc(b1-4)GlcNAc
# Outline: as §1
# [5] = biological target: GlcNAc(b1-3)Gal(b1-4)GlcNAc(b1-3)Gal(b1-4)GlcNAc(b1-3)Gal(b1-4)GlcNAc(b1-2)Man(a1-3)[GlcNAc(b1-3)Gal(b1-4)GlcNAc(b1-3)Gal(b1-4)GlcNAc(b1-3)Gal(b1-4)GlcNAc(b1-2)Man(a1-6)]Man(b1-4)GlcNAc(b1-4)[Fuc(a1-6)]GlcNAc
# Outline: as §1
# [6] = biological target: GlcNAc(b1-3)Gal(b1-4)GlcNAc(b1-3)Gal(b1-4)GlcNAc(b1-3)Gal(b1-4)GlcNAc(b1-2)[GlcNAc(b1-3)Gal(b1-4)GlcNAc(b1-3)Gal(b1-4)GlcNAc(b1-3)Gal(b1-4)GlcNAc(b1-6)]Man(a1-6)[GlcNAc(b1-3)Gal(b1-4)GlcNAc(b1-3)Gal(b1-4)GlcNAc(b1-3)Gal(b1-4)GlcNAc(b1-2)Man(a1-3)]Man(b1-4)GlcNAc(b1-4)[Fuc(a1-6)]GlcNAc
# Outline: as §1
# [7] = biological target: GlcNAc(b1-3)Gal(b1-4)GlcNAc(b1-3)Gal(b1-4)GlcNAc(b1-3)Gal(b1-4)GlcNAc(b1-3)Gal(b1-4)GlcNAc(b1-2)Man(a1-3)[GlcNAc(b1-3)Gal(b1-4)GlcNAc(b1-3)Gal(b1-4)GlcNAc(b1-3)Gal(b1-4)GlcNAc(b1-3)Gal(b1-4)GlcNAc(b1-2)Man(a1-6)]Man(b1-4)GlcNAc(b1-4)GlcNAc
# Outline: as §1
# [8] = biological target: GlcNAc(b1-3)Gal(b1-4)GlcNAc(b1-3)Gal(b1-4)GlcNAc(b1-3)Gal(b1-4)GlcNAc(b1-3)Gal(b1-4)GlcNAc(b1-2)Man(a1-3)[GlcNAc(b1-3)Gal(b1-4)GlcNAc(b1-3)Gal(b1-4)GlcNAc(b1-3)Gal(b1-4)GlcNAc(b1-3)Gal(b1-4)GlcNAc(b1-2)Man(a1-6)]Man(b1-4)GlcNAc(b1-4)[Fuc(a1-6)]GlcNAc
# Outline: as §1
# [9] = biological target: GlcNAc(b1-3)Gal(b1-4)GlcNAc(b1-3)Gal(b1-4)GlcNAc(b1-3)Gal(b1-4)GlcNAc(b1-3)Gal(b1-4)GlcNAc(b1-2)[GlcNAc(b1-3)Gal(b1-4)GlcNAc(b1-3)Gal(b1-4)GlcNAc(b1-3)Gal(b1-4)GlcNAc(b1-3)Gal(b1-4)GlcNAc(b1-6)]Man(a1-6)[GlcNAc(b1-3)Gal(b1-4)GlcNAc(b1-3)Gal(b1-4)GlcNAc(b1-3)Gal(b1-4)GlcNAc(b1-3)Gal(b1-4)GlcNAc(b1-2)Man(a1-3)]Man(b1-4)GlcNAc(b1-4)[Fuc(a1-6)]GlcNAc
# Outline: as §1
# [10] = biological target: GlcNAc(b1-3)Gal(b1-4)GlcNAc(b1-3)Gal(b1-4)GlcNAc(b1-3)GalNAc
# Outline: as §1
# [11] = biological target: GlcNAc(b1-3)Gal(b1-4)GlcNAc(b1-3)GalNAc
# Outline: as §1
# [12] = biological target: GlcNAc(b1-3)Gal(b1-4)GlcNAc(b1-3)[GlcNAc(b1-3)Gal(b1-4)GlcNAc(b1-3)]GalNAc
# Outline: as §1
# [13] = biological target: GlcNAc(b1-3)Gal(b1-4)GlcNAc(b1-6)[Gal(b1-3)]GalNAc
# Outline: as §1
# [14] = biological target: GlcNAc(b1-3)Gal(b1-4)GlcNAc(b1-6)[GlcNAc(b1-3)Gal(b1-3)]GalNAc
# Outline: as §1
# [15] = biological target: GlcNAc(b1-3)Gal(b1-4)GlcNAc(b1-6)[GlcNAc(b1-3)]Gal(b1-4)GlcNAc
# Outline: as §1
# [16] = biological target: GlcNAc(b1-3)GalNAc
# Outline: as §1
# [17] = biological target: GlcNAc(b1-3)Man
# Outline: as §1
# [18] = biological target: GlcNAc(b1-3)[GlcNAc(b1-4)][GlcNAc(b1-6)]GlcNAc
# Outline: as §1
# [19] = biological target: GlcNAc(b1-3)[GlcNAc(b1-6)]Gal(b1-4)GlcNAc
# Outline: as §1
# [20] = biological target: GlcNAc(b1-3)[GlcNAc(b1-6)]GalNAc
# Outline: as §1
# [21] = biological target: GlcNAc(b1-4)Gal(b1-4)GlcNAc
# Outline: as §1
# [22] = biological target: GlcNAc(b1-4)GlcNAc
# Outline: as §1
# [23] = biological target: GlcNAc(b1-4)GlcNAc(b1-4)GlcNAc
# Outline: as §1
# [24] = biological target: GlcNAc(b1-4)GlcNAc(b1-4)GlcNAc(b1-4)GlcNAc(b1-4)GlcNAc
# Outline: as §1
# [25] = biological target: GlcNAc(b1-4)GlcNAc(b1-4)GlcNAc(b1-4)GlcNAc(b1-4)GlcNAc(b1-4)GlcNAc
# Outline: as §1
# [26] = biological target: GlcNAc(b1-4)[GlcNAc(b1-6)]GalNAc
# Outline: as §1
# [27] = biological target: GlcNAc(b1-6)Gal(b1-4)GlcNAc
# Outline: as §1
# [28] = biological target: GlcNAc(b1-6)GalNAc
# Outline: as §1
# [29] = biological target: GlcNAc6S(b1-3)Gal(b1-4)GlcNAc
# Outline: as §1
# [30] = biological target: Kdn(a2-3)Gal(b1-3)GalNAc
# Outline: as §1
# [31] = biological target: Kdn(a2-3)Gal(b1-3)GlcNAc
# Outline: as §1
# [32] = biological target: Kdn(a2-3)Gal(b1-4)Glc
# Outline: as §1
# [33] = biological target: Kdn(a2-3)Gal(b1-4)GlcNAc
# Outline: as §1
# [34] = biological target: Kdn(a2-3)Gal(b1-4)[Fuc(a1-3)]GlcNAc
# Outline: as §1
# [35] = biological target: Kdn(a2-6)Gal(b1-4)GlcNAc
# Outline: as §1
# [36] = biological target: Man(a1-2)Man(a1-2)Man(a1-3)Man
# Outline: as §1
# [37] = biological target: Man(a1-2)Man(a1-2)Man(a1-6)[Man(a1-3)]Man
# Outline: as §1
# [38] = biological target: Man(a1-2)Man(a1-3)Man
# Outline: as §1
binder,measurement,setting,value
B1,glycan array binding signal (z-score),[1],0.891
same,glycan array binding signal (z-score),[2],0.989
same,glycan array binding signal (z-score),[3],1.38
same,glycan array binding signal (z-score),[4],-0.16
same,glycan array binding signal (z-score),[5],1.07
same,glycan array binding signal (z-score),[6],1.24
same,glycan array binding signal (z-score),[7],0.096
same,glycan array binding signal (z-score),[8],-0.027
same,glycan array binding signal (z-score),[9],0.953
same,glycan array binding signal (z-score),[10],0.24
same,glycan array binding signal (z-score),[11],0.353
same,glycan array binding signal (z-score),[12],0.886
same,glycan array binding signal (z-score),[13],0.058
same,glycan array binding signal (z-score),[14],0.082
same,glycan array binding signal (z-score),[15],-0.214
same,glycan array binding signal (z-score),[16],-0.639
same,glycan array binding signal (z-score),[17],-0.145
same,glycan array binding signal (z-score),[18],-0.459
same,glycan array binding signal (z-score),[19],-0.471
same,glycan array binding signal (z-score),[20],-0.583
same,glycan array binding signal (z-score),[21],0.216
same,glycan array binding signal (z-score),[22],-0.29
same,glycan array binding signal (z-score),[23],-0.206
same,glycan array binding signal (z-score),[24],0.06
same,glycan array binding signal (z-score),[25],-0.001
same,glycan array binding signal (z-score),[26],-0.058
same,glycan array binding signal (z-score),[27],-0.299
same,glycan array binding signal (z-score),[28],-0.586
same,glycan array binding signal (z-score),[29],0.225
same,glycan array binding signal (z-score),[30],0.55
same,glycan array binding signal (z-score),[31],0.226
same,glycan array binding signal (z-score),[32],0.668
same,glycan array binding signal (z-score),[33],-0.045
same,glycan array binding signal (z-score),[34],0.075
same,glycan array binding signal (z-score),[35],-0.078
same,glycan array binding signal (z-score),[36],-0.527
same,glycan array binding signal (z-score),[37],-0.166
same,glycan array binding signal (z-score),[38],-0.547

# Given as tab-separated lines: part of the list above.
binder	measurement	setting	value
B1	glycan array binding signal (z-score)	[8]	-0.027
same	glycan array binding signal (z-score)	[16]	-0.639
